These are yes or no findings as the source states them, for the method shown. In cells and extracts the contact can be indirect. Here binding means that the protein was enriched with, or labelled near, the bait; the list need not be complete.

Protein sequences, listed by entry. Tags and fused reporters are not part of them. Residues count along the entry.
UniProt Q86WV6: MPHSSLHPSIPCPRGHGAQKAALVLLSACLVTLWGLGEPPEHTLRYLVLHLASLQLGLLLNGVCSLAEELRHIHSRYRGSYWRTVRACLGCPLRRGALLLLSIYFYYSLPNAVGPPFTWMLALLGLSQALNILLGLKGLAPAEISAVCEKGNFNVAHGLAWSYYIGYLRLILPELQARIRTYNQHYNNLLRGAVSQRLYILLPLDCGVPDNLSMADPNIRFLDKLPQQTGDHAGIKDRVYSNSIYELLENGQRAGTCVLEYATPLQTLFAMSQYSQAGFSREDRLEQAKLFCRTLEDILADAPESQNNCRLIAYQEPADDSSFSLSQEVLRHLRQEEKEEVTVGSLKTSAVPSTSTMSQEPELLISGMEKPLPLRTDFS
UniProt Q07065: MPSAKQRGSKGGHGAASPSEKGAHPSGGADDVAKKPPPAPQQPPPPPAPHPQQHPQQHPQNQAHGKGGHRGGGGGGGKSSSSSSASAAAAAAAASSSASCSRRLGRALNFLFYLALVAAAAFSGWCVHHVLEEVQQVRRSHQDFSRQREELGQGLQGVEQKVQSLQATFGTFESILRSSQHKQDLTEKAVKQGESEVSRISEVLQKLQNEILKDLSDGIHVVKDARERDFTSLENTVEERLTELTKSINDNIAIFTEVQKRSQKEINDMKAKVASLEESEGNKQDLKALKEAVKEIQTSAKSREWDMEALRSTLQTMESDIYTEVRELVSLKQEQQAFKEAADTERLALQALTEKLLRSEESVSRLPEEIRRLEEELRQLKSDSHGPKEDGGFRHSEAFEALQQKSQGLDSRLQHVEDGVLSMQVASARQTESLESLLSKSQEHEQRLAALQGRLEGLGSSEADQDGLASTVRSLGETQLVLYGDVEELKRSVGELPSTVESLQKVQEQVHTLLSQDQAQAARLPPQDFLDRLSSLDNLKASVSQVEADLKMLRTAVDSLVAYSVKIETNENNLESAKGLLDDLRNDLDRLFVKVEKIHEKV
UniProt P16402: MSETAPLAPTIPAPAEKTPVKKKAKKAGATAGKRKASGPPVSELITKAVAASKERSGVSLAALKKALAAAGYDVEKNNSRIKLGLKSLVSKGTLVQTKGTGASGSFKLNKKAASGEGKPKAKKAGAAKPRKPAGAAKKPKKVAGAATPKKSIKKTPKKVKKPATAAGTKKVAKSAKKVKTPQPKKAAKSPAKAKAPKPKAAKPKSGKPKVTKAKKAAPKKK
UniProt P51608: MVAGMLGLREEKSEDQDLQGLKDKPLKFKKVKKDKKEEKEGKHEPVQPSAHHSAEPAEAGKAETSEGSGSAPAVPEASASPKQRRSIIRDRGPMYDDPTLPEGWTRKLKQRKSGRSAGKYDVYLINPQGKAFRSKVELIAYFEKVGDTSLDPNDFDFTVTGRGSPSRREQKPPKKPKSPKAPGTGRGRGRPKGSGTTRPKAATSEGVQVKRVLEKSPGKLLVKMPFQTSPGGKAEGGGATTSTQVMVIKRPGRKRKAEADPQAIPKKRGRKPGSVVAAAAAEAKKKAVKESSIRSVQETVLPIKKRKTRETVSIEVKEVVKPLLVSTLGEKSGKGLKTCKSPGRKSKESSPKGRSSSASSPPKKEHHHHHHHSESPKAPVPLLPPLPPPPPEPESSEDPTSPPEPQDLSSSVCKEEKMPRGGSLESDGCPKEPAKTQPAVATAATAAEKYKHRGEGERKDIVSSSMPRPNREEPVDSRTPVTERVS
UniProt Q7Z4V5: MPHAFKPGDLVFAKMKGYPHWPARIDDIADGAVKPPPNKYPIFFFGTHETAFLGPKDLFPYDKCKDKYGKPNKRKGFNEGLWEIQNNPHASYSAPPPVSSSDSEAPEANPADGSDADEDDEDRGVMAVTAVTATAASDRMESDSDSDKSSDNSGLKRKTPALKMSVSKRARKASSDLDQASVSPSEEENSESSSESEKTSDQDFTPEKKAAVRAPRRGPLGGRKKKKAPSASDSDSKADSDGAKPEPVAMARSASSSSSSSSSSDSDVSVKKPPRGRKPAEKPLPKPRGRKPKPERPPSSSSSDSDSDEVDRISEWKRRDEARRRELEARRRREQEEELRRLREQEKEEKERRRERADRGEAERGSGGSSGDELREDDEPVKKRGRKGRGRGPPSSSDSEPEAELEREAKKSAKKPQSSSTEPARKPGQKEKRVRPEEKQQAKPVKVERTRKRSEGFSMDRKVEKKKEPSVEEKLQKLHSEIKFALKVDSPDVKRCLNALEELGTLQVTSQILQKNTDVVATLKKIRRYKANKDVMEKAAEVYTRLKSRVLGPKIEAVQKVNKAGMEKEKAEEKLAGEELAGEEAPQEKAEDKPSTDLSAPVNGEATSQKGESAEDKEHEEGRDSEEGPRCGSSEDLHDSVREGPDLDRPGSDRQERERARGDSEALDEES
UniProt Q9UIF9: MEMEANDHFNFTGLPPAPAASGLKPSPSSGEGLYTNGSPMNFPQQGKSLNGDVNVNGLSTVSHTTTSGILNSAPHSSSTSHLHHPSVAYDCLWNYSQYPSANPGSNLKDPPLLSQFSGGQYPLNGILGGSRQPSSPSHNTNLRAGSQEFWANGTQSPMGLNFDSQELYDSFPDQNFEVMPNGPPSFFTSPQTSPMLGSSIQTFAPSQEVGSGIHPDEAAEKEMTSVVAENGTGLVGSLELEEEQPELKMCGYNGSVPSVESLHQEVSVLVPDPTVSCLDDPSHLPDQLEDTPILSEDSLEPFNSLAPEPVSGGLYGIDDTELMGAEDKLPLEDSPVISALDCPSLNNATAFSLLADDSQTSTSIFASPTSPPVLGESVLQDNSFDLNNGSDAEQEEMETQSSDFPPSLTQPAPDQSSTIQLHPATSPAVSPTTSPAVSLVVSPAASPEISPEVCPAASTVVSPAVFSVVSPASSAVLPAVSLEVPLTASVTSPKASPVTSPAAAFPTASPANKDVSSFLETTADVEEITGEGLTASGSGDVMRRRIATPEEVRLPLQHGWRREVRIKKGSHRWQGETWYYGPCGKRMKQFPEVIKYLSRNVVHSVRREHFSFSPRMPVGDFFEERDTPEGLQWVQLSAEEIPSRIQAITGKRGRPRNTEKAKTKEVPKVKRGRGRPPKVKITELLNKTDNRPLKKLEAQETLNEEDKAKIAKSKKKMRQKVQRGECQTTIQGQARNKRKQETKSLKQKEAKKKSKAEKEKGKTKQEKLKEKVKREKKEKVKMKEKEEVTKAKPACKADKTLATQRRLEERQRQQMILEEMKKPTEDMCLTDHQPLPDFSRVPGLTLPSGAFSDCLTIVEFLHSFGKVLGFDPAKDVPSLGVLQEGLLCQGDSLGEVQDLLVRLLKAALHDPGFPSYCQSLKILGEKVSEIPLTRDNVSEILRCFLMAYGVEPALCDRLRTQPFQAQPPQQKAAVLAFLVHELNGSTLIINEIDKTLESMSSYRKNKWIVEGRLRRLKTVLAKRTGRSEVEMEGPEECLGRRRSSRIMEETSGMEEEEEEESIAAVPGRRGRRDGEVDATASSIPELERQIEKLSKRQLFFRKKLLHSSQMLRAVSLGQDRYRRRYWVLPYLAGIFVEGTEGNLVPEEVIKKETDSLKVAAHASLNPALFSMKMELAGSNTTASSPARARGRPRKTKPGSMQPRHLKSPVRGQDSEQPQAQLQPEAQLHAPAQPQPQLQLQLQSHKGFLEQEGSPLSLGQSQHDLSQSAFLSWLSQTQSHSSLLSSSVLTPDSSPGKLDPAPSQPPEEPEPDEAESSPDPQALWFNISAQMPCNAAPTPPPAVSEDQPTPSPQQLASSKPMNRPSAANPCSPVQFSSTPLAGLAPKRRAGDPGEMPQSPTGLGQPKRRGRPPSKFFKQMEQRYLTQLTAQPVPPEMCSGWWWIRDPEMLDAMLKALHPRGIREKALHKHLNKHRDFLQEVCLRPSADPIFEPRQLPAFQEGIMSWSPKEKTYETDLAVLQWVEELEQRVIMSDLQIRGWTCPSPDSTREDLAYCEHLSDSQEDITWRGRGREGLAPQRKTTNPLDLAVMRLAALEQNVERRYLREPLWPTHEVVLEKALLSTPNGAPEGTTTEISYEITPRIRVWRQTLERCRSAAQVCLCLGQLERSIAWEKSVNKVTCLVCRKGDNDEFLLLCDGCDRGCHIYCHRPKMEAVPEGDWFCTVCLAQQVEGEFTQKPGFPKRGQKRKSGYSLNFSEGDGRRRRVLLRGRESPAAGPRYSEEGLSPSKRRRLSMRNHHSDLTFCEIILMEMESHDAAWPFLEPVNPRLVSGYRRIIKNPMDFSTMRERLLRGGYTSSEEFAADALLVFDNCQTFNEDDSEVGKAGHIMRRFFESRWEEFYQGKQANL
UniProt P16403: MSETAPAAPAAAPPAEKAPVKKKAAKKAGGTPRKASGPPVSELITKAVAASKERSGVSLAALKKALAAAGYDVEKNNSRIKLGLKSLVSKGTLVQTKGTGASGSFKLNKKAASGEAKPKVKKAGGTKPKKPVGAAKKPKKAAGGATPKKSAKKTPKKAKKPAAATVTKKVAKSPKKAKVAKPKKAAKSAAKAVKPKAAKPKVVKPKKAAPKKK
UniProt P08621: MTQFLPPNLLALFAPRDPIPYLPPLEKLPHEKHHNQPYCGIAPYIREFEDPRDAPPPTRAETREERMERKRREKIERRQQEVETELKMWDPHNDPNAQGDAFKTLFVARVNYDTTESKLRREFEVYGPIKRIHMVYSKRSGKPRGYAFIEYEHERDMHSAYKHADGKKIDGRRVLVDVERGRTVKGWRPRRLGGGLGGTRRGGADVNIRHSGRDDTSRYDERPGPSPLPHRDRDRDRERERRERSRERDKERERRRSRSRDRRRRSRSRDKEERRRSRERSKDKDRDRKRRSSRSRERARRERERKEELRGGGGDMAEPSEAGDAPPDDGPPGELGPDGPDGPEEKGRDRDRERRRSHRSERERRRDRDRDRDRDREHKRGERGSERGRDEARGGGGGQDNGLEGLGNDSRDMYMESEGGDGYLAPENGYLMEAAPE
UniProt P38159: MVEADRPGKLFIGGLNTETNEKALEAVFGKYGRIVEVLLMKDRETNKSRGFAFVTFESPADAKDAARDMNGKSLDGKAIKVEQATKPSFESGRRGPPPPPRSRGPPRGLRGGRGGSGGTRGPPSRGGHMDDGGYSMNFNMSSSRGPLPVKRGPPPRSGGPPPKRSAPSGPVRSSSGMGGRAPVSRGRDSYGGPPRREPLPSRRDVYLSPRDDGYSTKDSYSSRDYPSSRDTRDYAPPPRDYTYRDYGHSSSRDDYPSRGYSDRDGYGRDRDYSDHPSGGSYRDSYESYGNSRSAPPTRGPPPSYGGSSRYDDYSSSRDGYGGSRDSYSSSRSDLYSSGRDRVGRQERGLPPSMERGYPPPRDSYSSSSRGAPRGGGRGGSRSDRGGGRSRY
UniProt P17844: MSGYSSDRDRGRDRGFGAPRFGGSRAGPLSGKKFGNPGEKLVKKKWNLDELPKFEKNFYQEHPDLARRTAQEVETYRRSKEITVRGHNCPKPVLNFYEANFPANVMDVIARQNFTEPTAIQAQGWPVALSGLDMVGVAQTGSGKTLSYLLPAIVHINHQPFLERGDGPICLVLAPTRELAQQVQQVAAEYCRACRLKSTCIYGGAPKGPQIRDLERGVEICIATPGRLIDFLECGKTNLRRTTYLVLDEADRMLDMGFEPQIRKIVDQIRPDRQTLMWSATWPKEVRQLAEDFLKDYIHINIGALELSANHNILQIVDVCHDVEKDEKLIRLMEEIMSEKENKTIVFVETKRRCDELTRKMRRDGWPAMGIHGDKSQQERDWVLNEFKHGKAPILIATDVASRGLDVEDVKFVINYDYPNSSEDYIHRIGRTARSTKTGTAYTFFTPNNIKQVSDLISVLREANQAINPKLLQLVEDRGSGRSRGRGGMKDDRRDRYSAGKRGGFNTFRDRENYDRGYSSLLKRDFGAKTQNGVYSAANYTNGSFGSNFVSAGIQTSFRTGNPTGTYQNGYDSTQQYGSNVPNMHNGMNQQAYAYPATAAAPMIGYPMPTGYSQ
UniProt P02545, residues 1-646: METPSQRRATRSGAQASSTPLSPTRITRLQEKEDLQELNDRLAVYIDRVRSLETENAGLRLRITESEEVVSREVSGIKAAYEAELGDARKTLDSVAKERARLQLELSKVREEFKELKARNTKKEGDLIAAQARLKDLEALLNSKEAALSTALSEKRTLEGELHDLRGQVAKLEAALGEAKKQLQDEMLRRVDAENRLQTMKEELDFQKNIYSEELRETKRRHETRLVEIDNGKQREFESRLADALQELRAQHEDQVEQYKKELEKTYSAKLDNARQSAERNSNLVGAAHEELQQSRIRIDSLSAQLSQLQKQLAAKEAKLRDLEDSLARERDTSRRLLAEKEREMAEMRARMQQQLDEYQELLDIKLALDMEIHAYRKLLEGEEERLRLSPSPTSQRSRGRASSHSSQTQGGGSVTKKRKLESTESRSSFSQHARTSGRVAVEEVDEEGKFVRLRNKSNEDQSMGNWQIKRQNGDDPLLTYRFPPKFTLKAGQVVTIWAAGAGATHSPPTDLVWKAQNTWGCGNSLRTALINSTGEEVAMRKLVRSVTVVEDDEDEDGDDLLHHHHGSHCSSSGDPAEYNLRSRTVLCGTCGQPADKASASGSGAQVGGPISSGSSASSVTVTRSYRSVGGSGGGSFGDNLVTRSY

These results are taken from PMC8436130.

For the assay, the target named is STimulator of INterferon Genes (STING) fused to GFP (UniProt Q86WV6). As to the kind of experiment: affinity purification with mass spectrometry; nuclear envelopes isolated from HEK293T cells expressing STING-GFP, reversibly cross-linked with ortho-phenanthroline copper, resuspended in RIPA and sonicated, immunoprecipitated with GFP antibodies on Protein A-sepharose, released with 50 mM DTT, tandem mass spectrometry; mock-transfected cells as control.
For the substance CKAP4 (from UniProt Q07065 1-602), the binding result is given as “binds”.

Regarding HIST1H1D (from UniProt P16402 1-221), the binding result is recorded as “binds”.

For KIAA0020 (from UniProt Q15397 1-648), the binding result is “binds”.

On to BRD2 (from UniProt P25440 1-801), for which the binding entry is “binds”.

For HSPA1A (from UniProt P0DMV8 1-641), the binding entry is “binds”.

Turning to MECP2 (from UniProt P51608 1-486), the binding entry is recorded as “binds”.

On to HDGR2 (from UniProt Q7Z4V5 1-671), for which the binding entry is given as “binds”.

As to PSIP1 (from UniProt O75475 1-530), the binding entry is “binds”.

In the case of “major histone K4 methyltransferase, MLL1 (from UniProt Q03164 1-3969)”, the binding result was “binds”.

For the substance RBMXL1 (from UniProt Q96E39 1-390), the binding result is “binds”.

BAZ2A (from UniProt Q9UIF9 1-1905): the binding result was “binds”.

With HNRNPK (from UniProt P61978 1-463), the binding entry is “binds”.

On to TCERG1 (from UniProt O14776 1-1098), for which the binding entry was “binds”.

Consider MEN1 (from UniProt O00255 1-610), for which the binding entry is “binds”.

As for CD11B (from UniProt P21127 1-795), the binding result was “binds”.

With HIST1H1C (from UniProt P16403 1-213), the binding result is recorded as “binds”.

Regarding GTF2I (from UniProt P78347 1-998), the binding entry was “binds”.

As for HP1B3 (from UniProt Q5SSJ5 1-553), the binding result is given as “binds”.

For the substance MFAP1 (from UniProt P55081 1-439), the binding entry was “binds”.

Take SNRNP70 (from UniProt P08621 1-437): the binding result is recorded as “binds”.

As to DDX41 (from UniProt Q9UJV9 1-622), the binding result is recorded as “binds”.

As for “SYNCRIP/hnRNP Q (from UniProt O60506 1-623)”, the binding result is “binds”.

On to HNRNPG (from UniProt P38159 1-391), for which the binding entry is “binds”.

For DDX5 (from UniProt P17844 1-614), the binding result is listed as “binds”.

Take Lamin A (from UniProt P02545 1-646): the binding entry was “binds”.
